This is an account of results in PubChem BioAssay AID222 (DTP/NCI, 2004).

Structures are written as SMILES. The list does not hold the whole screen: it gathers some chemical classes. Not every dose and run of a compound is shown. T/C is the treated group as % of the vehicle group. Where survival is the endpoint, this PubChem deposit counts one and a half times the control or more as active, and values a quarter to a half above the control carry no call in these data; other NCI protocols may use other cut-offs. Schedules are NCI's codes, taken here to give the interval after Q, in days (D) or hours (H), and the number of doses after X. Some entries show no survivor count and are marked so; the dose need not have been tolerated.

For the experiment, the system named is C57BL/6 mice, intracerebral ependymoblastoma, median survival T/C. The experiment can be described thus: NCI In Vivo Anticancer Drug Screen. Data for tumor model Ependymoblastoma (intracerebral) in C57BL/6 mice. Particulars: T/C endpoint: median survival time; dose: 2.0 mg/kg/injection; schedule: Q01DX005 (ip); vehicle: saline; higher T/C = longer survival. How it is done:
The antitumor activity of compounds was measured in mice bearing transplantable tumors. Survival or tumor size were measured and the results are expressed as the measurement made in the treated group (T) divided by the measurement made in the vehicle treated control group (C). The tumor model used in this assay is Ependymoblastoma (intracerebral) in C57BL/6 mice

`CC(=O)OCC12CCC(C)=CC1OC1C(O)C(OC(C)=O)C2(C)C12CO2` (stereo unspecified): the T/C is 106 % of control [survivor count not shown].
